# Inconclusive means that the source gave no clear call. Such entries were picked first, then a sample of the others. For some assays here: Where the call is inconclusive, the potency comes from a doubtful curve fit. Calls of active or inactive are those of the source. Unless noted, the limit is not given here; nearly all actives have AC50 up to about 26 µM.
# How the values were obtained:
# [1] = growth inhibition of DIPG glioma cells, dose response, cell-based, SU-DIPG-XVII, MIPE5.0, CellTiter-Glo, qHTS (AID 1347060); conditions: SU-DIPG-XVII viability, CellTiter-Glo ATP luminescence;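 as to AC50: cells exposed to compound for 48 hours before viability readout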
# [2] = growth inhibition of DIPG glioma cells, dose response, cell-based, SU-DIPG-IV, MIPE4.0, CellTiter-Glo, qHTS (AID 1347063; cut-off not given, nearly all actives have AC50 up to about 30 µM;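 also: compound exposure lasted 48 hours before the viability readout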); conditions: SU-DIPG-IV viability, CellTiter-Glo ATP luminescence
# [3] = growth inhibition of DIPG glioma cells, dose response, cell-based, SU-DIPG-XIII, MIPE5.0, CellTiter-Glo, qHTS (AID 1347064; cut-off not given, nearly all actives have AC50 up to about 23 µM;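 as to AC50: cells exposed to compound for 48 hours before the viability read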); conditions: SU-DIPG-XIII viability, CellTiter-Glo ATP luminescence
# [4] = viability loss in pontine glioma line – cell-based, SU-DIPG-XXV, MIPE5.0, CellTiter-Glo, qHTS, dose response (AID 1347065); conditions: CellTiter-Glo ATP luminescence;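 also: cells exposed to compound for 48 hours before ATP readout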
# [5] = SU-DIPG-VI glioma cell viability, MIPE4.0 library, CellTiter-Glo luminescence, qHTS (AID 1347066; cut-off not given, nearly all actives have AC50 up to about 30 µM;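 also: cells exposed to compound for 48 hours before readout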); conditions: CellTiter-Glo ATP luminescence
# [6] = growth inhibition of DIPG glioma cells, dose response, cell-based, JHH-DIPG-1, MIPE4.0, CellTiter-Glo, qHTS (AID 1347062; cut-off not given, nearly all actives have AC50 up to about 27 µM;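 as to AC50: cells exposed to compound for two days before readout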); conditions: JHH-DIPG-1 viability, CellTiter-Glo ATP luminescence
# [7] = JHH-DIPG-1 glioma cell viability, MIPE5.0 library, CellTiter-Glo luminescence, qHTS (AID 1347067); conditions: JHH-DIPG-1 glioma viability, CellTiter-Glo ATP luminescence;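 also: cells exposed to compound for 48 hours before readout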
# [8] = SU-DIPG-XXV glioma cell viability, MIPE5.0 library, qHTS (AID 1347068; cut-off not given, nearly all actives have IC50 up to about 30 µM;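 as to IC50: cells exposed to compound for 48 hours before viability readout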)
# [9] = inhibitors of polyQ aggregate elongation, biochemical, solid-phase synthetic aggregates, QA3 (AID 1585; call rule not given here); conditions: biotin-polyQ incorporation, at 100 µM, stronger effect = higher value
# [10] = polyglutamine aggregation reduction, turbidity readout, qthio, single concentration 25 µM screen (AID 1588; call rule not given here); conditions: at 25 µM, stronger effect = lower value
# [11] = protection of motor neurons from glutamate death, cell-based, TUNEL DNA degradation staining, MNGlu (AID 1594; call rule not given here); conditions: glutamate-induced death, at 1 µM, stronger effect = higher value
# [12] = enhancers of SMN2 over SMN1 splicing, cell-based, SMN2/SMN1 luciferase reporters (AID 1598; call rule not given here); conditions: SMN2 vs SMN1 luciferase splicing reporter cells; at 10 µM; stronger effect = higher value
structure (smiles),measurement,setting,value
C#C[C@]1(O)CC[C@H]2[C@@H]3CCC4=CC(=O)CC[C@@H]4[C@H]3CC[C@@]21CC,outcome,[1],inactive
same,outcome,[2],inactive
same,AC50,[3],inconclusive: 11.8 µM
same,AC50,[4],inconclusive: 0.0295 µM [cytotoxic]
same,outcome,[5],inactive
CCn1c(C(=O)N(C2CC2)C2CC2)cc2c3c(ncn3C)c(Nc3cc(C)n(C)n3)nc21,AC50,[1],inconclusive: 16.6 µM [cytotoxic]
same,outcome,[6],inactive
same,AC50,[3],inconclusive: 9.34 µM [cytotoxic]
same,AC50,[4],inconclusive: 13.2 µM [cytotoxic]
same,AC50,[7],inconclusive: 26.3 µM [cytotoxic]
O=c1cc(-c2ccccc2)oc2cc(O)c(O)c(O)c12,AC50,[1],inconclusive: 37.2 µM [cytotoxic]
same,AC50,[6],inconclusive: 23.5 µM [cytotoxic]
same,AC50,[3],inconclusive: 0.295 µM
same,AC50,[4],inconclusive: 20.9 µM [cytotoxic]
same,AC50,[5],inconclusive: 18.7 µM [cytotoxic]
same,AC50,[7],inconclusive: 23.5 µM [cytotoxic]
same,IC50,[8],inconclusive: 26.3 µM [cytotoxic]
Oc1ccc(C2CNCCc3c2cc(O)c(O)c3Cl)cc1 (stereo unspecified),outcome,[1],inactive
same,AC50,[2],inconclusive: 0.00166 µM
same,outcome,[3],inactive
same,outcome,[4],inactive
O=c1[nH]c(=O)n([C@H]2C[C@H](O)[C@@H](CO)O2)cc1C(F)(F)F,AC50,[1],inconclusive: 23.5 µM [cytotoxic]
same,outcome,[6],inactive
same,AC50,[2],inconclusive: 0.0833 µM [cytotoxic]
same,outcome,[7],inactive
CC(N)C12CC3CC(CC(C3)C1)C2 (stereo unspecified),outcome,[1],inactive
same,outcome,[6],inactive
same,AC50,[7],inconclusive: 33.2 µM
Nc1ccn([C@@H]2O[C@H](CO)[C@@H](O)[C@H]2O)c(=O)n1,AC50,[1],inconclusive: 0.00105 µM [cytotoxic]
same,AC50,[2],inconclusive: 1.66 µM
same,outcome,[3],inactive
same,outcome,[4],inactive
COc1ncnc(NS(=O)(=O)c2ccc(N)cc2)c1OC,outcome,[1],inactive
same,outcome,[6],inactive
same,outcome,[2],inactive
same,AC50,[4],inconclusive: 14.8 µM
same,outcome,[5],inactive
same,outcome,[8],inactive
O=C(NCc1ccccc1)[C@H](Cc1ccccc1)NC(=O)[C@H]1O[C@@H]1C(=O)NCCc1ccc(O)cc1,AC50,[1],inconclusive: 37.2 µM [cytotoxic]
same,outcome,[6],inactive
same,AC50,[2],inconclusive: 26.4 µM [cytotoxic]
same,AC50,[3],inconclusive: 26.3 µM [cytotoxic]
same,AC50,[7],inconclusive: 2.95 µM [cytotoxic]
same,IC50,[8],active: 18.6 µM
Cc1cncc2cccc(S(=O)(=O)N3CCCN(C(=O)CN)C[C@@H]3C)c12,outcome,[1],inactive
same,outcome,[6],inactive
same,outcome,[3],inactive
same,AC50,[4],inconclusive: 16.6 µM [cytotoxic]
same,outcome,[7],inactive
same,IC50,[8],inconclusive: 8.33 µM [cytotoxic]
CC(C)(N)C(=O)N[C@H](COCc1ccccc1)C(=O)N1CCC2(CC1)CN(S(C)(=O)=O)c1ccccc12,outcome,[1],inactive
same,AC50,[2],inconclusive: 18.7 µM [cytotoxic]
same,outcome,[3],inactive
Cc1cnc(CNC(=O)c2c(=O)c3ccc(N4CCCN(C)CC4)nc3n3c2sc2ccccc23)cn1,AC50,[1],inconclusive: 2.7 µM [cytotoxic]
same,outcome,[6],inactive
same,AC50,[2],inconclusive: 10.2 µM [cytotoxic]
same,outcome,[3],inactive
same,AC50,[7],inconclusive: 6.79 µM [cytotoxic]
NC[C@H]1O[C@H](O[C@H]2[C@H](O)[C@@H](O[C@H]3O[C@H](CO)[C@@H](O)[C@H](N)[C@H]3O)[C@H](N)C[C@@H]2N)[C@H](N)C[C@@H]1O,outcome,[1],inactive
same,outcome,[6],inactive
same,outcome,[3],inactive
same,AC50,[4],inconclusive: 16.6 µM [cytotoxic]
same,outcome,[8],inactive
CC1COC2(CCN(c3nc(=O)c4cc(C(F)(F)F)cc([N+](=O)[O-])c4s3)CC2)O1 (stereo unspecified),AC50,[1],inconclusive: 0.00186 µM
same,outcome,[6],inactive
same,AC50,[3],inconclusive: 16.6 µM
CCOC(=O)[C@H](CCc1ccccc1)N[C@@H](C)C(=O)N1CCC[C@H]1C(=O)O,inhibition,[9],inconclusive: -9.33%
same,aggregation (% of control),[10],inconclusive: 110%
same,protection,[11],inconclusive: 1%
same,SMN2/SMN1 luciferase ratio,[12],inconclusive: 1.09
same,AC50,[1],inconclusive: 29.5 µM [cytotoxic]
same,outcome,[6],inactive
same,outcome,[3],inactive
same,outcome,[4],inactive
same,IC50,[8],inconclusive: 0.0417 µM [cytotoxic]
CCCCCCCN(CC)CCCC(O)c1ccc(NS(C)(=O)=O)cc1 (stereo unspecified),outcome,[1],inactive
same,outcome,[6],inactive
same,outcome,[4],inactive
same,outcome,[5],inactive
same,IC50,[8],inconclusive: 0.00166 µM [cytotoxic]
CO[C@H]1C(=O)[C@]2(C)[C@@H](OC)C[C@H]3OC[C@@]3(OC(C)=O)[C@H]2[C@H](OC(=O)c2ccccc2)[C@]2(O)C[C@H](OC(=O)[C@H](O)[C@@H](NC(=O)OC(C)(C)C)c3ccccc3)C(C)=C1C2(C)C,AC50,[1],inconclusive: 0.00186 µM [cytotoxic]
same,outcome,[6],inactive
same,outcome,[2],inactive
same,AC50,[4],active: 0.00186 µM
same,outcome,[5],inactive
same,IC50,[8],inconclusive: 0.00742 µM [cytotoxic]

# Quoted from the listing for reference:
structure (smiles),measurement,setting,value
C#C[C@]1(O)CC[C@H]2[C@@H]3CCC4=CC(=O)CC[C@@H]4[C@H]3CC[C@@]21CC,AC50,[3],inconclusive: 11.8 µM
same,AC50,[4],inconclusive: 0.0295 µM [cytotoxic]
same,outcome,[5],inactive
CCn1c(C(=O)N(C2CC2)C2CC2)cc2c3c(ncn3C)c(Nc3cc(C)n(C)n3)nc21,AC50,[1],inconclusive: 16.6 µM [cytotoxic]
same,outcome,[6],inactive
same,AC50,[3],inconclusive: 9.34 µM [cytotoxic]
same,AC50,[4],inconclusive: 13.2 µM [cytotoxic]
same,AC50,[7],inconclusive: 26.3 µM [cytotoxic]
O=c1cc(-c2ccccc2)oc2cc(O)c(O)c(O)c12,AC50,[1],inconclusive: 37.2 µM [cytotoxic]
same,AC50,[6],inconclusive: 23.5 µM [cytotoxic]
same,AC50,[3],inconclusive: 0.295 µM
same,AC50,[4],inconclusive: 20.9 µM [cytotoxic]
same,AC50,[5],inconclusive: 18.7 µM [cytotoxic]
same,AC50,[7],inconclusive: 23.5 µM [cytotoxic]
same,IC50,[8],inconclusive: 26.3 µM [cytotoxic]
Oc1ccc(C2CNCCc3c2cc(O)c(O)c3Cl)cc1 (stereo unspecified),outcome,[1],inactive
